The values that follow come from paper PMC7666153, “The phosphorylated regulator of chemotaxis is crucial throughout biofilm biogenesis in Shewanella oneidensis” (NPJ Biofilms and Microbiomes, 2020).

Sequences of proteins named here, by UniProt entry; tags and fusion partners are left off.
UniProt Q51455: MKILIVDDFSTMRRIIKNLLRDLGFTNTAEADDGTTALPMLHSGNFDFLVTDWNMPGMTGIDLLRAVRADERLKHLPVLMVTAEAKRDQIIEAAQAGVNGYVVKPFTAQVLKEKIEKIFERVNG

No constants are given. Whether binding was seen depends on the method and setting. Some binding calls cover weakened binding; strength is not graded here.

The test has as its target T25-MxdA (S. oneidensis) (UniProt Q8E9T3). Kind of test: two-hybrid.

As for T18-CheYPA (from UniProt Q51455 1-124), the binding entry is given as “no binding”.

B1: T18-CheYEC (protein, UniProt P0AE67 1-129)
chain: MADKELKFLVVDDFSTMRRIVRNLLKELGFNNVEEAEDGVDALNKLQAGGYGFVISDWNMPNMDGLELLKTIRADGAMSALPVLMVTAEAKKENIIAAAQAGASGYVVKPFTAATLEEKLNKIFEKLGM
Consider B1, for which the binding entry is reported as “binds”.
